For at least one compound, name, drawing or mass did not settle the structure.
Experiments:
[1] = tested on: human primary normal oral keratinocytes (NOK); test: Irradiation and clonogenic assay; format: cell-based
human primary NOK [2] = test: Immunoblot of DNA damage, senescence and stem cell markers in NOK; format: cell-based
human primary NOK [3] = test: Senescence-associated beta-galactosidase (SA-βgal) staining; format: cell-based
human primary NOK [4] = test: Replicative senescence / cumulative population doublings; format: cell-based; settings: continuous rapamycin treatment vs control cells
Procedure: NOK were plated in collagen coated LabTek chamber slides and treated with vehicle or 20 nM rapamycin for 3 days. Cells were then γ-irradiated or not, and further treated with vehicle or rapamycin for 24 h. For TUNEL assay cells were processed for staining immediately, for SA-β-gal cells were passed and assessed 4 days after plating. Apoptosis was detected using the CLICK-IT™ TUNEL ALEXA FLUOR™ 594 Imaging Assay (Life Technologies, Carlsbad, Calif.) and SA-β-gal activity was measured using the SA-β-gal kit (Cell Signaling Technology, Danvers, Mass.) according to the manufacturer's instructions. The proportion of positive cells was determined by fluorescence or transmission microscopy and quantified using ImageJ. Eight different fields containing approximately 60 cells each were quantified per condition. For the calculation of population doublings cells were cultured as described and treated with vehicle or 20 nM rapamycin. Population doublings were calculated every passage using the formula x=[log 10(NH/N1)]/log 10(2)] (Cristofalo et al., PNAS, 95, 10614-10619 (1998)), where N1 is the inoculum cell number and NH the cell harvest number. To yield the cumulated doubling doublings, the population doublings for each passage was calculated and then added to the population doubling levels of the previous passages.

primary NOK [5] = test: ROS levels by DHE staining (FACS); format: cell-based, human
HNSCC cells (HN12) = test: ROS levels by DHE staining (FACS); format: cell-based; settings: 24 hours after radiation, rapamycin pretreated
primary NOK [6] = test: H2O2 induced senescence, γH2AX and p16; format: cell-based, human; settings: NOK pretreated with rapamycin
HNSCC cells = test: H2O2 induced DNA damage; format: cell-based; settings: HNSCC cells pretreated with rapamycin
NOK = test: Protein levels of ROS detoxification enzymes (western blot); format: cell-based, human; settings: 72 h rapamycin treatment
HN12 cells = test: as above; format: cell-based; settings: HN12, 72 h rapamycin treatment
C3H mice = test: Radiation-induced mucositis in mice: toluidine blue staining and histology of tongues; format: in vivo
[7] = tested on: tongue epithelium of C3H mice; test: Tissue immunostaining of mouse tongue epithelium; format: in vivo
[8] = NOK, continuous rapamycin treatment

For CO[C@H]1C[C@@H]2CC[C@@H](C)[C@@](O)(O2)C(=O)C(=O)N2CCCC[C@H]2C(=O)O[C@H]([C@H](C)C[C@@H]2CC[C@@H](O)[C@H](OC)C2)CC(=O)[C@H](C)/C=C(\C)[C@@H](O)[C@@H](OC)C(=O)[C@H](C)C[C@H](C)/C=C/C=C/C=C/1C [rapamycin], the “decrease in the surviving fraction” value ([1]; NOK, 20 nM rapamycin, irradiated) was “not observed”, the “colony size compared with vehicle treated cells” value ([1]; NOK, 20 nM rapamycin, maintained after radiation) was “enhanced the colony size” and the colony forming efficiency ([1]; control and irradiated NOK, 20 nM rapamycin) was “increased the colony forming efficiency”. For the same molecule, the “clonogenic capacity of rapamycin-treated NOK” value ([1]; decreased expression of MnSOD (siMnSOD), normal conditions and after radiation (3 Gy)) was “abrogated the increased clonogenic capacity”, the “levels of the senescence marker p16” value (human primary NOK [2]; NOK after radiation) was “reduced levels” and the “levels of the DNA damage response marker γH2AX” value (human primary NOK [2]; NOK exposed to radiation, early and late time points (30 min, 24 h)) was “reduced levels”. The “rescue of increased basal p16 expression and γH2AX DNA damage” value (human primary NOK [2]; NOK with MnSOD knockdown (siMnSOD)) was “only be partially rescued”, the “epithelial progenitor marker p63 (western blot)” value (human primary NOK [2]; [8]) was “prevented the disappearance” and the “phosphorylation status of Akt” value (human primary NOK [2]; [8]) was “significant changes in the phosphorylation status of Akt were not observed”. For the same molecule, the “levels of p16” value (human primary NOK [2]; NOK, continuous rapamycin treatment vs control cells with time) was “clear reduction”, the “increase in SA-βgal” value (human primary NOK [3]; NOK, continuous rapamycin treatment, replicative senescence) was “not in rapamycin treated cells” and the “percentage of cells positive for SA-βgal (senescent cells)” value (human primary NOK [3]; control and radiated NOK, 20 nM rapamycin) was “reduced the accumulation of senescent cells”. For the same molecule, the “lifespan in culture (days before replicative senescence)” value (human primary NOK [4]) was “almost tripled”, the “total cumulative population doublings” value (human primary NOK [4]) was “almost tripled” and the “ROS preceding NOK cell growth arrest” value (primary NOK [5]; 10 days continuous rapamycin treatment) was “prevented the remarkable increase in ROS”. The “ROS in cells undergoing replicative senescence” value (primary NOK [5]; 40 days continuous rapamycin treatment) was “prevented the remarkable increase in ROS”, the “ROS after radiation (DHE staining)” value (primary NOK [5]; primary NOK, 24 hours after radiation, rapamycin pretreated) was “prevented the induction of ROS” and the “ROS accumulation after radiation (DHE staining)” value (HNSCC cells (HN12)) was “failed to protect from ROS accumulation”. The “DNA damage marker γH2AX following H2O2 treatment” value (primary NOK [6]) was “prevented the appearance”, the “expression of the senescence marker p16 following H2O2 treatment” value (primary NOK [6]) was “prevented” and the “DNA damage following H2O2 treatment” value (HNSCC cells) was “did not prevent the increase in DNA damage”. The expression of catalase (NOK) was “did not affect the expression”, the “expression of cytosolic superoxide dismutase (Cu-ZnSOD)” value (NOK) was “did not affect the expression” and the “protein levels of MnSOD” value (NOK; NOK) was “specifically increased the protein levels”. The “protein levels of MnSOD” value (HN12 cells) was “not in HN12 cells”, the “extensive ulceration of the surface of the tongue” value (C3H mice; irradiated mice, histology) was “absent in all rapamycin treated mice” and the “appearance of mucositis/ulcers (toluidine blue)” value (C3H mice; irradiated mice, rapamycin 5 mg/kg i.p. daily 5 days, 6 Gy/day, day 5 after final dose) was “almost completely prevented”. The “histological analysis of the tongues, epithelial layer” value (C3H mice; irradiated rapamycin-treated mice) was “preservation of the epithelial layer”, the “histological response to rapamycin” value (C3H mice; non-irradiated mice) was “No differences were observed” and the “proliferative and tissue repopulating function of basal epithelial cells (Ki-67)” value ([7]; 5 days after the last radiation dose (day 10)) was “preserved the proliferative and tissue repopulating function”. The “proliferation of the basal progenitor layer (Ki-67)” value ([7]; at the end of the radiation regime (day 5)) was “prevented also the radiation-induced block in proliferation”, the “aberrant activation of mTOR (phosphorylation of S6) in basal layer of tongue epithelium” value ([7]; day 10, 5 days after last radiation dose, rapamycin 5 mg/kg i.p. daily 5 days, 6 Gy/day) was “prevented” and the “accumulation of p53 in basal epithelial cells after radiation, difference to control” value ([7]; irradiated mice) was “not observed”. For the same molecule, the “basal cell marker cytokeratin 5” value ([7]; irradiated mice) was “prevented the radiation-induced disappearance”, the “epithelial progenitor marker p63 (basal p63+ cells)” value ([7]; irradiated mice) was “prevented the radiation-induced disappearance” and the “levels of MnSOD” value ([7]; irradiated mice) was “increased levels”. The “levels of γH2AX” value ([7]; irradiated mice) was “reduction”, the “levels of p63 expression in basal progenitor cells” value ([7]; non-irradiated mice) was “slight and yet significant increase” and the “number and distribution pattern of p63 positive cells” value ([7]; non-irradiated mice) was “did not affect”.
